In PMC11077861:
No constants are given. Whether binding was seen depends on the method and setting. For some of these results: Binding seen in cells or lysates may run through a third protein. Some entries that bind do so weakly or less than the wild type. For some of these results: Tags and fused reporters may be left off the sequences shown.

Chains of the proteins cited; added tags and fusions are not shown. Lines headed by an entry give the natural chain unless they say otherwise; changes in a name come on top. A line that says so, or that is headed by a name, gives the form on record, which may keep a tag or linker.
UniProt P14618: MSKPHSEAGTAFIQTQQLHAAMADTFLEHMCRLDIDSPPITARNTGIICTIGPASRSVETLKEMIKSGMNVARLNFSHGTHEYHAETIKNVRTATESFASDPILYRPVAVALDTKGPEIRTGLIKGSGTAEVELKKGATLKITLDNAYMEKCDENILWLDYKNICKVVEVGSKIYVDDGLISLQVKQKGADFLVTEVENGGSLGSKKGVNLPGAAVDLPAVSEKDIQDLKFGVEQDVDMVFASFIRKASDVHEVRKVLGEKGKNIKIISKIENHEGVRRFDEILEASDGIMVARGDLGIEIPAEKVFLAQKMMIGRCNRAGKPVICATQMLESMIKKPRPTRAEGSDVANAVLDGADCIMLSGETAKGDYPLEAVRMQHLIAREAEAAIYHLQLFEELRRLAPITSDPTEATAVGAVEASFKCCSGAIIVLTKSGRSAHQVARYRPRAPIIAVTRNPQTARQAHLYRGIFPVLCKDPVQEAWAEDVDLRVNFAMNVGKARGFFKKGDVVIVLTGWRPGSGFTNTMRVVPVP
PKM2^(I267&268 A) (in CAOV3 and OV90 cells) (P14618, form named): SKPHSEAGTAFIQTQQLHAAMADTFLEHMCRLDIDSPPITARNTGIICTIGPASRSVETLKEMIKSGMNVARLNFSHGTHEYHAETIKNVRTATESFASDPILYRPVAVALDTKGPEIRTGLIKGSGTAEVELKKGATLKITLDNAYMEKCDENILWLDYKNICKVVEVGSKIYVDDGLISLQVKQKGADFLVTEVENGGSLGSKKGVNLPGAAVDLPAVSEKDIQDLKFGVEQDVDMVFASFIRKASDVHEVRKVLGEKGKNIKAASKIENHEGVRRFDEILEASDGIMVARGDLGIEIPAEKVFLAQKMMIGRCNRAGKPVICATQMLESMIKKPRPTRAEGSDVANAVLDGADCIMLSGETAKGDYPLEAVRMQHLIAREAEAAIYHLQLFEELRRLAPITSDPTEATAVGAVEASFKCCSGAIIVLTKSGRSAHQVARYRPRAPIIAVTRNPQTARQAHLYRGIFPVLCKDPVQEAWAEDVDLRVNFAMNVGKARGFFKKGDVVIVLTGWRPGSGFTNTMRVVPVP

Assays:
[1] = target: T1, Endothelial cell specific molecule 1 (ESM1), endogenous (human (endogenous in OV90 and CAOV3)) (UniProt Q9NQ30); test: co-IP; lysates of ovarian cancer cell lines (OV90, CAOV3, SKOV3) in IP lysis buffer, antibody overnight at 4 °C, protein A/G beads, Western blot; with or without ESM1 overexpression or knockdown; treatments: ginkgolic acid, simvastatin, Shikonin, UBA2 shRNA
T1 sequence: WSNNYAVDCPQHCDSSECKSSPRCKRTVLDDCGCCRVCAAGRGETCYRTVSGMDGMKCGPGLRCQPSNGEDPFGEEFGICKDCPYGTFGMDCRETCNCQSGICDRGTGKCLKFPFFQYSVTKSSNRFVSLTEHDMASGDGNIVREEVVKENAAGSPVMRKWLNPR

[2] = target: T2, ESM1 overexpressed in ovarian cancer cells (Flag-tagged) (human) (UniProt Q9NQ30); test: as above
T2 sequence: T1 sequence

[3] = target: Pyruvate kinase isozyme M2 (PKM2), endogenous (human (endogenous in OV90, CAOV3, SKOV3 and A2780)) (UniProt P14618); test: Western blot of dimeric PKM2; ESM1-overexpressing CAOV3 and OV90 cells with PKM2^(I267&268 A); whether cross-linked as in Fig. 3F is not said
[4] = target: T3, Flag-tagged ESM1 (in 293T cells) (human) (UniProt Q9NQ30); test: co-IP; tagged proteins co-transfected into HEK-293T cells, IP and Western blot
T3 sequence: T1 sequence

Substance: Pyruvate kinase isozyme M2 (PKM2), endogenous (from UniProt P14618 1-531) (enzyme)
- binding [1]: binds
- binding [2]: binds

Substance: PKM2^(I267&268 A) (in CAOV3 and OV90 cells) (from UniProt P14618 2-531) (enzyme)
- binding [3]: no binding

Substance: GST-tagged PKM2 (in 293T cells) (from UniProt P14618 2-531) (enzyme)
- binding [4]: binds
